Data from patent US20170306017A1.
Results are given in words; binding and its absence hold for the method and conditions named. Some entries that bind do so weakly or less than the wild type.

Tests used:
[1] = target: rat SEMA4D (cellular target on lysed whole blood cells of Sprague-Dawley rats) (rat); test: flow cytometry-based saturation assay on lysed whole blood of male Sprague-Dawley rats after a single intravenous injection of MAb 2503
[2] = target: marmoset CD100 (marmoset); test: ELISA and flow cytometry; BIACORE
[3] = target: marmoset CD100 (marmoset); test: flow cytometry blocking assay of FIG. 1: CD100 pre-incubated with the MAb, then added to 293/Plexin cells; blocked partner Plexin B1
[4] = target: rat SEMA4D (cellular target on lysed whole blood cells of Sprague-Dawley rats) (rat); test: flow cytometry-based saturation assay on lysed whole blood of female Sprague-Dawley rats after a single intravenous injection of MAb 2503
[5] = target: marmoset CD100 (marmoset); test: ELISA, flow cytometry, BIACORE (Example 5)

Measured: binding

B1: MAb 2503 (antibody, V domains shown)
VH: QVQLVQSGAEVKKPGSSVKVSCKASGYSFSDYYMHWVRQAPGQGLEWMGQINPTTGGASYNQKFKGKATITVDKSTSTAYMELSSLRSEDTAVYYCARYYYGRHFDVWGQGTTVTVSS
VL: DIVMTQSPDSLAVSLGERATINCKASQSVDYDGDSYMNWYQQKPGQPPKLLIYAASNLESGVPDRFSGSGSGTDFTLTISSLQAEDVAVYYCQQSNEDPYTFGQGTKLEIK
binds: all assays above
